No constants are given. Whether binding was seen depends on the method and setting.
Tests used:
[1] = biological target: receiver domain (RD) of Arabidopsis thaliana ETHYLENE RESPONSE1 (ETR1), residues 605-738 (Arabidopsis thaliana) (UniProt P49333); assay: NMR 15N relaxation (rotational correlation time from R1 and R2); 25°C, 600.13 MHz; Tris buffer; HEPES buffer also did not give a dimer; both purified
[2] = biological target: receiver domain (RD) of Arabidopsis thaliana ETHYLENE RESPONSE1 (ETR1), residues 605-738 (Arabidopsis thaliana) (UniProt P49333); assay: SEC; FPLC size-exclusion chromatography, Sephacryl S-100, 40 mM Tris-HCl pH 7.0, 150 mM NaCl, 1 mM EDTA; with SDS-PAGE; both purified
[3] = biological target: receiver domain (RD) of Arabidopsis thaliana ETHYLENE RESPONSE1 (ETR1), residues 605-738 (Arabidopsis thaliana) (UniProt P49333); assay: NMR titration; ~0.1 mM ETR1-RD, 40 mM Tris-HCl pH 7.0, 150 mM NaCl, with 10 mM Mg2+ and/or 3 mM BeF3-; both purified

B1: receiver domain (RD) of Arabidopsis thaliana ETHYLENE RESPONSE1 (ETR1), residues 605-738 (domain or fragment, UniProt P49333 605-738)
chain: SNFTGLKVLVMDENGVSRMVTKGLLVHLGCEVTTVSSNEECLRVVSHEHKVVFMDVCMPGVENYQIALRIHEKFTKQRHQRPLLVALSGNTDKSTKEKCMSFGLDGVLLKPVSLDNIRDVLSDLLEPRVLYEGM
With B1 the binding [1] was “no binding”, the binding [2] was “no binding” and the binding [3] was “no binding (tested: ~0.1 mM)”.

Reference: article PMC4972365
